Reference: the supplement of paper PMC8728848
The list shows a part of the results.

Assays:
Assay in all cases: glycan array binding signal (z-score within array); higher = stronger binding
Conditions in all cases: glycan notation: IUPAC condensed, linker removed
[1] = target: Gal(b1-4)GlcNAc(b1-3)Gal(b1-4)GlcNAc(b1-3)Gal(b1-4)GlcNAc(b1-3)Gal(b1-4)GlcNAc(b1-2)Man(a1-3)[Gal(b1-4)GlcNAc(b1-3)Gal(b1-4)GlcNAc(b1-3)Gal(b1-4)GlcNAc(b1-3)Gal(b1-4)GlcNAc(b1-2)Man(a1-6)]Man(b1-4)GlcNAc(b1-4)[Fuc(a1-6)]GlcNAc
Outline: (§1)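 Glycan array data were curated from 3228 arrays in the Consortium for Functional Glycomics database and kept only where the protein sequence was available. Glycan names were converted to IUPAC-condensed notation, and columns mapping to the same glycan were averaged. The binding signal is a within-array Z-score, averaged across arrays of the same protein sequence at different concentrations or buffers and across linkers. Negative Z-scores can be read as non-binding.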

[2] = target: Gal(b1-4)GlcNAc(b1-3)Gal(b1-4)GlcNAc(b1-3)Gal(b1-4)GlcNAc(b1-3)Gal(b1-4)GlcNAc(b1-2)[Gal(b1-4)GlcNAc(b1-3)Gal(b1-4)GlcNAc(b1-3)Gal(b1-4)GlcNAc(b1-3)Gal(b1-4)GlcNAc(b1-6)]Man(a1-6)[Gal(b1-4)GlcNAc(b1-3)Gal(b1-4)GlcNAc(b1-3)Gal(b1-4)GlcNAc(b1-3)Gal(b1-4)GlcNAc(b1-2)Man(a1-3)]Man(b1-4)GlcNAc(b1-4)[Fuc(a1-6)]GlcNAc
Outline: as §1

[3] = target: Gal(b1-4)GlcNAc(b1-3)Gal(b1-4)GlcNAc(b1-3)Gal(b1-4)GlcNAc(b1-3)Gal(b1-4)GlcNAc(b1-3)Gal(b1-4)GlcNAc(b1-2)Man(a1-3)[Gal(b1-4)GlcNAc(b1-3)Gal(b1-4)GlcNAc(b1-3)Gal(b1-4)GlcNAc(b1-3)Gal(b1-4)GlcNAc(b1-3)Gal(b1-4)GlcNAc(b1-2)Man(a1-6)]Man(b1-4)GlcNAc(b1-4)GlcNAc
Outline: as §1

[4] = target: Gal(b1-4)GlcNAc(b1-3)Gal(b1-4)GlcNAc(b1-3)Gal(b1-4)GlcNAc(b1-3)Gal(b1-4)GlcNAc(b1-3)Gal(b1-4)GlcNAc(b1-2)Man(a1-3)[Gal(b1-4)GlcNAc(b1-3)Gal(b1-4)GlcNAc(b1-3)Gal(b1-4)GlcNAc(b1-3)Gal(b1-4)GlcNAc(b1-3)Gal(b1-4)GlcNAc(b1-2)Man(a1-6)]Man(b1-4)GlcNAc(b1-4)[Fuc(a1-6)]GlcNAc
Outline: as §1

[5] = target: Gal(b1-4)GlcNAc(b1-3)Gal(b1-4)GlcNAc(b1-3)Gal(b1-4)GlcNAc(b1-3)Gal(b1-4)GlcNAc(b1-3)Gal(b1-4)GlcNAc(b1-2)[Gal(b1-4)GlcNAc(b1-3)Gal(b1-4)GlcNAc(b1-3)Gal(b1-4)GlcNAc(b1-3)Gal(b1-4)GlcNAc(b1-3)Gal(b1-4)GlcNAc(b1-6)]Man(a1-6)[Gal(b1-4)GlcNAc(b1-3)Gal(b1-4)GlcNAc(b1-3)Gal(b1-4)GlcNAc(b1-3)Gal(b1-4)GlcNAc(b1-3)Gal(b1-4)GlcNAc(b1-2)Man(a1-3)]Man(b1-4)GlcNAc(b1-4)[Fuc(a1-6)]GlcNAc
Outline: as §1

[6] = target: Gal(b1-4)GlcNAc(b1-3)Gal(b1-4)GlcNAc(b1-3)Gal(b1-4)GlcNAc(b1-3)Gal(b1-4)GlcNAc(b1-3)Gal(b1-4)GlcNAc(b1-3)Gal(b1-4)GlcNAc(b1-2)Man(a1-3)[Gal(b1-4)GlcNAc(b1-3)Gal(b1-4)GlcNAc(b1-3)Gal(b1-4)GlcNAc(b1-3)Gal(b1-4)GlcNAc(b1-3)Gal(b1-4)GlcNAc(b1-3)Gal(b1-4)GlcNAc(b1-2)Man(a1-6)]Man(b1-4)GlcNAc(b1-4)GlcNAc
Outline: as §1

[7] = target: Gal(b1-4)GlcNAc(b1-3)Gal(b1-4)GlcNAc(b1-3)GalNAc
Outline: as §1

[8] = target: Gal(b1-4)GlcNAc(b1-3)Gal(b1-4)GlcNAc(b1-3)[Gal(b1-4)GlcNAc(b1-3)Gal(b1-4)GlcNAc(b1-6)]GalNAc
Outline: as §1

[9] = target: Gal(b1-4)GlcNAc(b1-3)Gal(b1-4)GlcNAc(b1-6)[Gal(b1-3)]GalNAc
Outline: as §1

[10] = target: Gal(b1-4)GlcNAc(b1-3)Gal(b1-4)[Fuc(a1-3)]GlcNAc(b1-3)Gal(b1-4)[Fuc(a1-3)]GlcNAc
Outline: as §1

[11] = target: Gal(b1-4)GlcNAc(b1-3)GalNAc
Outline: as §1

[12] = target: Gal(b1-4)GlcNAc(b1-3)[Fuc(a1-3)GlcNAc(b1-6)]Gal(b1-4)Glc
Outline: as §1

[13] = target: Gal(b1-4)GlcNAc(b1-3)[Gal(b1-4)GlcNAc(b1-6)]Gal(b1-4)GlcNAc
Outline: as §1

[14] = target: Gal(b1-4)GlcNAc(b1-3)[GlcNAc(b1-6)]Gal(b1-4)GlcNAc
Outline: as §1

[15] = target: Gal(b1-4)GlcNAc(b1-6)Gal(b1-4)GlcNAc
Outline: as §1

[16] = target: Gal(b1-4)GlcNAc(b1-6)GalNAc
Outline: as §1

[17] = target: Gal(b1-4)GlcNAc(b1-6)[Gal(b1-3)]GalNAc
Outline: as §1

[18] = target: Gal(b1-4)GlcNAc(b1-6)[Gal(b1-4)GlcNAc(b1-3)]GalNAc
Outline: as §1

[19] = target: Gal(b1-4)GlcNAc6P
Outline: as §1

[20] = target: Gal(b1-6)Gal
Outline: as §1

[21] = target: Gal3S(b1-3)GalNAc
Outline: as §1

[22] = target: Gal3S(b1-3)GlcNAc
Outline: as §1

[23] = target: Gal3S(b1-3)[Fuc(a1-4)]GlcNAc
Outline: as §1

B1: SJCP3842 (Schistosoma japonicum) (protein)
chain: MFKMRIINLVNISTVLLLINLLQTKSRLVGKENGFMLTVSIYGAQLSDKMTSVPVSWTIDYEDPEKSAFKKLVTDSCDTFSEYVKSQIPKGSVDGQCTSHIFQRPGSGSGVSISLTLSFIYVDVTQPDTVALKTELEKHFANFVTIHSHKITQAQFRINQKAIVIPTGDKDAIDGSKWKIIAIIALVALAIVVIGGFIYICVK
In the case of B1, the “glycan array binding signal (z-score)” value [1] is reported as 0.938, the “glycan array binding signal (z-score)” value [2] is reported as -0.057 and the “glycan array binding signal (z-score)” value [3] is reported as 0.937. For the same binder, the “glycan array binding signal (z-score)” value [4] was -0.251, the “glycan array binding signal (z-score)” value [5] was 0.053 and the “glycan array binding signal (z-score)” value [6] was -0.925. The “glycan array binding signal (z-score)” value [7] was 1.75, the “glycan array binding signal (z-score)” value [8] was 2.35 and the “glycan array binding signal (z-score)” value [9] was -0.509. The “glycan array binding signal (z-score)” value [10] was -0.867, the “glycan array binding signal (z-score)” value [11] was -0.741 and the “glycan array binding signal (z-score)” value [12] was 0.621. For the same binder, the “glycan array binding signal (z-score)” value [13] was 0.205, the “glycan array binding signal (z-score)” value [14] was -0.532 and the “glycan array binding signal (z-score)” value [15] was 0.826. For the same binder, the “glycan array binding signal (z-score)” value [16] was -0.403, the “glycan array binding signal (z-score)” value [17] was 0.5 and the “glycan array binding signal (z-score)” value [18] was -0.835. For the same binder, the “glycan array binding signal (z-score)” value [19] was 0.199, the “glycan array binding signal (z-score)” value [20] was 1.78 and the “glycan array binding signal (z-score)” value [21] was 0.1. For the same binder, the “glycan array binding signal (z-score)” value [22] was -0.363 and the “glycan array binding signal (z-score)” value [23] was 0.16.
